In the data set the test system is artificial myocardial structure (cardiac organoid). The data set can be described thus: Contractile force-based cardiac toxicity assessment of drug-treated artificial myocardial structure. The settings on record: 100 nM; FIG. 15. Format: cell-based. From the text:
Furthermore, after additionally treating an artificial myocardial structure prepared by coculturing gelatin oil capsules and cardiomyocytes with various drugs, contractile forces of the drug-treated artificial myocardial structure were checked.

Take `COC(=O)C1=C(C)NC(C)=C(C(=O)OC)C1c1ccccc1[N+](=O)[O-]` [Nifedipine]: the beat rates entry was “changed into slow beat rates” and the contractile forces entry is “weakened”.

Values taken from US20210395676A1, “CARRIER FOR CELL CULTURE COMPRISING MICROCAPSULES CONTAINING NATURAL OIL” (Korea Research Institute of Chemical Technology, priority 2018, published 2021).
